Data taken from patent US8512733B2, “Stents with drug-containing amphiphilic polymer coating” (Abbott Laboratories, priority 2001, dated 2013).

Assay: Estradiol uptake studies (drug loading on polymer coated stents, HPLC)

C[C@]12CC[C@@H]3c4ccc(O)cc4CC[C@H]3[C@@H]1CC[C@@H]2O [estradiol, 17β-estradiol]
drug total loading (Example 1.1: 15 mm BiodivYsio DD stents, copolymer d), immersed in 20 mg/ml solution 30 minutes): 45-65 μg per stent
amount on each balloon (Example 1.2): 190 to 220 µg
level of drug on the stents (Example 1.2: 18 mm stents premounted on balloon, dipping plus pipetting steps): 225-250 μg per stent
area distribution (Example 1.3, 3 mm balloon system): 2.6 μg/mm^2
mean loading per stent (Example 1.3, 3 mm balloon system, 5 samples): 2.59 µg
area distribution (Example 1.3, 4 mm balloon system): 2.4 μg/mm^2
mean level of drug (Example 1.3, 4 mm balloon system, 3 samples): 240 µg
